Drawing on publication PMC12618502, this text covers binding for one substance.

Results are given in words; binding and its absence hold for the method and conditions named. In cells and extracts the contact can be indirect. Here binding means that the protein was enriched with, or labelled near, the bait; the list need not be complete. Sequences can lack the tags named with a protein.

The target in this assay is T1, GFP-tagged SCP8 (SCP8-GFP), Verticillium dahliae small cysteine-containing effector VdSCP8 (Verticillium dahliae) (UniProt G2XD53).
T1 sequence: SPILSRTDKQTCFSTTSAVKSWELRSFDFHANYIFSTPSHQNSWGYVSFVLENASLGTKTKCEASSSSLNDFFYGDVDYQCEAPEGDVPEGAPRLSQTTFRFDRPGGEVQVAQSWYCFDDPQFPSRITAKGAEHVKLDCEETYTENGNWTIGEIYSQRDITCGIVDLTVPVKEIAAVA
In words: affinity purification with mass spectrometry; total proteins of N. benthamiana leaves transiently expressing SCP8-GFP (free GFP as control), immunoprecipitated with GFP-Trap agarose beads, trypsin digest, LC-MS/MS; proteins common to both samples removed.

Take “subtilase (SBT) Niben101Scf00726g02006.1 of N. benthamiana (enzyme)”: the binding entry is recorded as “binds”.
